Results are given in words; binding and its absence hold for the method and conditions named. Binding seen in cells or lysates may run through a third protein. Some entries that bind do so weakly or less than the wild type.
Experiments:
[1] = biological target: Dcc (endogenous, cerebellar granule neurons) (mouse (endogenous in cerebellar granule neurons)) (UniProt P70211); test: proximity ligation; Duolink on dissociated CGNs plated on laminin, cultured 24 h at 37 C, fixed in 2% PFA/0.5% glutaraldehyde; antibody pairs Dcc ECD + JamC ECD and Dcc ICD + Pard3; controls with no or one primary antibody
[2] = biological target: T1, JamC (bait of Figure S4A) (mouse) (UniProt Q9D8B7); test: co-IP; JamC as bait, Dcc extracellular or intracellular domain as prey (Figure S4A); details not shown
T1 sequence: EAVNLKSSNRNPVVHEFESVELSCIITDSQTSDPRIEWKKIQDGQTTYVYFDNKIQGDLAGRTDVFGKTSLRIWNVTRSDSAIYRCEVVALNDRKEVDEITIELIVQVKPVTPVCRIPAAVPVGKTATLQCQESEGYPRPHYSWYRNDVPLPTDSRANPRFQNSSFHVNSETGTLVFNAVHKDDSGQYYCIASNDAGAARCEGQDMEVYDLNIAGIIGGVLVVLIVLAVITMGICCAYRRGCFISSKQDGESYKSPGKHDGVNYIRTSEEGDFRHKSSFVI

Sequences of proteins named here, by UniProt entry; tags and fusion partners are left off. A change or cut given only in a name is not applied to a line headed by its entry. Residues count along the entry.
UniProt P70211: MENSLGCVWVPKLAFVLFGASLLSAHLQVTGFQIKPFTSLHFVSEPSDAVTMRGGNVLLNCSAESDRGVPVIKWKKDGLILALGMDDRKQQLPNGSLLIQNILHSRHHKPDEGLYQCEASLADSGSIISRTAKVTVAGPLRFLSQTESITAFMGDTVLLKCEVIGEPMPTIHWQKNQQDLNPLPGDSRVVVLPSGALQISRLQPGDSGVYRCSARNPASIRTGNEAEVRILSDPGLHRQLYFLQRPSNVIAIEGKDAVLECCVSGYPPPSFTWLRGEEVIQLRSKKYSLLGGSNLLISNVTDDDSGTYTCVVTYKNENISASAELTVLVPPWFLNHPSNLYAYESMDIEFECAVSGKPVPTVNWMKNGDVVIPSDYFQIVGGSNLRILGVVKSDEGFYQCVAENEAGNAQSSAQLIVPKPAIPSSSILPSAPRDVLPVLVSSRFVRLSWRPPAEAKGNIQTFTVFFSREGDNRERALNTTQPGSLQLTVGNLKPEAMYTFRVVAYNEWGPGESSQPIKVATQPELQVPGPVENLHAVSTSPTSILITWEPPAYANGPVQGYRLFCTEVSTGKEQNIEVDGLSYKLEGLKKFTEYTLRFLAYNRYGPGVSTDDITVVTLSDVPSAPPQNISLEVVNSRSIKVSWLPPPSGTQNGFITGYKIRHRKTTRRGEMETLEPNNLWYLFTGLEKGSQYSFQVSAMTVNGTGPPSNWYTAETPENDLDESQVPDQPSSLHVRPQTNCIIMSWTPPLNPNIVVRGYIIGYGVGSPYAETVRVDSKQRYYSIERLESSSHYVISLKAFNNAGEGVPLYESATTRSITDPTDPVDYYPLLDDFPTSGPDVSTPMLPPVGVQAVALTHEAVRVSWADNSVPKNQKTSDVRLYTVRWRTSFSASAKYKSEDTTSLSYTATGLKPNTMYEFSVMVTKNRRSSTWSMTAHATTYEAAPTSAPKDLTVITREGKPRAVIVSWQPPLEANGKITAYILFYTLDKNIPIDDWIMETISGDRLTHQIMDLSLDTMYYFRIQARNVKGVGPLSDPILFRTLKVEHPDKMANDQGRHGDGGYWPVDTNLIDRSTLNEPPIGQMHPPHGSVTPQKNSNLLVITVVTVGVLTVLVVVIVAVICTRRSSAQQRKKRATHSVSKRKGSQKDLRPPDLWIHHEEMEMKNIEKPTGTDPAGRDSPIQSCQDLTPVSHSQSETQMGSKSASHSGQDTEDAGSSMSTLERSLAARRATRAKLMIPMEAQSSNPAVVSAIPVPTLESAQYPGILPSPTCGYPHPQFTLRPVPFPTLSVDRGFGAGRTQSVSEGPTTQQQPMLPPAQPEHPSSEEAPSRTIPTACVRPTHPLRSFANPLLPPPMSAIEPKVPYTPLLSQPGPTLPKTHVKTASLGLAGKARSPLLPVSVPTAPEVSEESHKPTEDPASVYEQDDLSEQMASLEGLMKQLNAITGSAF
Dcc (endogenous, cerebellar granule neurons) (mouse (endogenous in cerebellar granule neurons)): residues 26-1447 of P70211
UniProt Q99NH2: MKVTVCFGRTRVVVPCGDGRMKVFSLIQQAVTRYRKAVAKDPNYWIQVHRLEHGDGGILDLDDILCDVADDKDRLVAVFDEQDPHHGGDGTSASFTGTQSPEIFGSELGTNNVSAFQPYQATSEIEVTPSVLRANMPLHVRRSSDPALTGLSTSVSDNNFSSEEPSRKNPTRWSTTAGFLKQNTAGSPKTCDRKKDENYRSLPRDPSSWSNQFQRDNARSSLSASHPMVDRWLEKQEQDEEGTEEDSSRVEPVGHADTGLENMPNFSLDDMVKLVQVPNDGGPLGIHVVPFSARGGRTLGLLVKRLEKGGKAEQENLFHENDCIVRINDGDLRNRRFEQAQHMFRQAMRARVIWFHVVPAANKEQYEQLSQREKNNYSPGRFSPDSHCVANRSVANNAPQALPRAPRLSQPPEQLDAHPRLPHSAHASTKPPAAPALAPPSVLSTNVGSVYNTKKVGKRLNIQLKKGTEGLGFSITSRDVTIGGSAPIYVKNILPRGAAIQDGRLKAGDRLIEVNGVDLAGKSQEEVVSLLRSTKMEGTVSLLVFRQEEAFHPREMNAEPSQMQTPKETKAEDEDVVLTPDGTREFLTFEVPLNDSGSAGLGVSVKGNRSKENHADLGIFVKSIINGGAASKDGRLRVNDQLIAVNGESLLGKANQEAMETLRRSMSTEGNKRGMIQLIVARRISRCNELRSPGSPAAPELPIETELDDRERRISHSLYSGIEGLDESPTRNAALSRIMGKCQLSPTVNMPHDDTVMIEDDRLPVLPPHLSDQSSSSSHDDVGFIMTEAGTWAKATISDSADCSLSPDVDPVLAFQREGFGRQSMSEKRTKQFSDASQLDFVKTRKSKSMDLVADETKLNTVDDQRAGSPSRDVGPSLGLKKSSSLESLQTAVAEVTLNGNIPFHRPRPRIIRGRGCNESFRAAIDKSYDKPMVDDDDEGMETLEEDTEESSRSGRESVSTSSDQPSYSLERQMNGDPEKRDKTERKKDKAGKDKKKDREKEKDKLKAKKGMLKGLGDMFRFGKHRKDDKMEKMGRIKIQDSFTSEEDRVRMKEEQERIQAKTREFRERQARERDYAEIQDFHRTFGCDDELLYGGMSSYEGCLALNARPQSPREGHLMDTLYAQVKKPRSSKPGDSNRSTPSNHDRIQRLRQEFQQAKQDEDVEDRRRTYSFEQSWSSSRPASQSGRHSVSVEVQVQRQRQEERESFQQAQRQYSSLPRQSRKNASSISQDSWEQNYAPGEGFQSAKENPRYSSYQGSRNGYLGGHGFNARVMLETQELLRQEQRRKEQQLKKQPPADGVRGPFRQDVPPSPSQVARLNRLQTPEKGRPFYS

binding [1] | binding [2] | Substance
binds |  | Pard3 (endogenous, cerebellar granule neurons) (from UniProt Q99NH2 1-1333)
 | binds | extracellular domain of Dcc (from UniProt P70211 26-1097) (domain or fragment)

Source: publication PMC11469462
